Experimental data as given in PMC7619307, “The Golgi vesicle tether p115 can bind directly to the ER exit site organiser Sec16A” (Journal of cell science, 2026).
Results are given in words; binding and its absence hold for the method and conditions named. For some of these results: In cells and extracts the contact can be indirect. Blank lines part the entries; values can stand above or below the binder they belong to.

Amino acid sequences for entries named in this document (tags omitted). A change or cut given only in a name is not applied to a line headed by its entry.
UniProt O15027: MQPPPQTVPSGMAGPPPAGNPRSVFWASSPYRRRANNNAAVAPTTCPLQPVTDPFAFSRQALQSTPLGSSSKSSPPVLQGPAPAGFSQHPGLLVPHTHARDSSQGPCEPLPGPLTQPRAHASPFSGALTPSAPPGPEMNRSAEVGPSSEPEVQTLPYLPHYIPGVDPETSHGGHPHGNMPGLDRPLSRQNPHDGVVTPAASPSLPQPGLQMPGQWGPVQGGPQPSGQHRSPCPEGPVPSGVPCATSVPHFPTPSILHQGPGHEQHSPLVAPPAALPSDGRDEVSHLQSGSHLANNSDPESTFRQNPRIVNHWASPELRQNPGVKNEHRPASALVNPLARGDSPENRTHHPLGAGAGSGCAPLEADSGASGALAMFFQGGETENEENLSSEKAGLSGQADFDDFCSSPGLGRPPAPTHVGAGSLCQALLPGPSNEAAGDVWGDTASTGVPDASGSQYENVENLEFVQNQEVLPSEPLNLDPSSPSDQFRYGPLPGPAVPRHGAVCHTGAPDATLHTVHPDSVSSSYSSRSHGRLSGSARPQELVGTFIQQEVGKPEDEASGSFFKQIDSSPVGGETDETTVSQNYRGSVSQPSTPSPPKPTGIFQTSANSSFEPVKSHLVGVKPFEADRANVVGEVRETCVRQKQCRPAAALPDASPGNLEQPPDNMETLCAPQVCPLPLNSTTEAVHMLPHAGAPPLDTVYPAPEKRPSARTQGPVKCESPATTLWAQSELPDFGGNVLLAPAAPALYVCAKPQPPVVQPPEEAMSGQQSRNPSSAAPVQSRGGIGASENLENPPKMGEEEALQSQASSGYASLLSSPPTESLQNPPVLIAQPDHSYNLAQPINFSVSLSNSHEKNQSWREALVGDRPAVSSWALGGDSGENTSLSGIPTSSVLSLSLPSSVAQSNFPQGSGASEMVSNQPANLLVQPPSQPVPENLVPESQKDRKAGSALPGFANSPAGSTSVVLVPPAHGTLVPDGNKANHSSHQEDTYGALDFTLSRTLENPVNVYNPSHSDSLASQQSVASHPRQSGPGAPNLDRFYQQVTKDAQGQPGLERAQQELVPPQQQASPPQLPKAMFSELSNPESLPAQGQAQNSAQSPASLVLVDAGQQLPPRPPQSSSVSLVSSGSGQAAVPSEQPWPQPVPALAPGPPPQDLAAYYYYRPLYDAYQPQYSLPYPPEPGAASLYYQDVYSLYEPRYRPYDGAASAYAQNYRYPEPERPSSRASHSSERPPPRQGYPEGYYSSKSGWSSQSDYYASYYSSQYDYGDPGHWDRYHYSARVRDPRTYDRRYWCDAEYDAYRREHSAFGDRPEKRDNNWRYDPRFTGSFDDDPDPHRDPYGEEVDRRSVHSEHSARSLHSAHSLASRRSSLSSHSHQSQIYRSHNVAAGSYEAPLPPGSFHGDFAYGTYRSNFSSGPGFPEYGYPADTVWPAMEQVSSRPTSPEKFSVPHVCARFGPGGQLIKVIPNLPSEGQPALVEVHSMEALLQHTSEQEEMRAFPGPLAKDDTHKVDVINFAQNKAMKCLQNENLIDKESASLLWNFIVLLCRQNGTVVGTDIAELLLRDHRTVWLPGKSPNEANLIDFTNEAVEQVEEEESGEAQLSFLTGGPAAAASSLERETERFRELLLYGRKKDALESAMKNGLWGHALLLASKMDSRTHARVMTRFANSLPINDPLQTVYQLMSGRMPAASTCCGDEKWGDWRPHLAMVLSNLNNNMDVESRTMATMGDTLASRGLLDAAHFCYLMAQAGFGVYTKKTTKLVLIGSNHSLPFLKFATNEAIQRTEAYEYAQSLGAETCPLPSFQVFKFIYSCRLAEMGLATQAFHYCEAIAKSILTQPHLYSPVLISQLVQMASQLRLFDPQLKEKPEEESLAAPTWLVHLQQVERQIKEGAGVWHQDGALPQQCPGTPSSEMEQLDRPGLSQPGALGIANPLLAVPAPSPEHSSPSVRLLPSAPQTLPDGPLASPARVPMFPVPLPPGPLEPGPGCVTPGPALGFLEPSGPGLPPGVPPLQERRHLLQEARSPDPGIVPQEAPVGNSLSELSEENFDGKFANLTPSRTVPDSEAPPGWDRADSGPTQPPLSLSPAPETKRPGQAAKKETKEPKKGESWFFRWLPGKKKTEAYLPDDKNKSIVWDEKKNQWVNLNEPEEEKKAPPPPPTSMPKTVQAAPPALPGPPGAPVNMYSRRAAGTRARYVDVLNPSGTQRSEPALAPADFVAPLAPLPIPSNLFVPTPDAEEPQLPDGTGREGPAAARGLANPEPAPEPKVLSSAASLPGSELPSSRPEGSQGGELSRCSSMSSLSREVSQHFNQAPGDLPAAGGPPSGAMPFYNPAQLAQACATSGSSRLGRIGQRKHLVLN

What was measured:
[1] = target: Sec16A (650–776) GFP fusion with site 2 mutations to alanine (human) (UniProt O15027); experiment: co-IP; GFP-tagged protein expressed in HEK293T cells, precipitated on GFP-Trap agarose (lysis with 150 mM NaCl, 0.5% Triton X-100; washes with 300 mM NaCl; 4°C); endogenous partner detected by immunoblot
[2] = target: Sec16A (650–776) GFP fusion with site 1 mutations to alanine (human) (UniProt O15027); experiment: as above
[3] = target: mitochondrial form of Sec16A (650–776) with site 1 mutations (human) (UniProt O15027); experiment: mitochondrial relocation assay (confocal microscopy); one partner anchored on mitochondria in HeLa cells (HA–MAO chimera); relocation of the endogenous or co-expressed partner to mitochondria seen by immunofluorescence or GFP
[4] = target: mitochondrial form of Sec16A (650–776) with site 2 mutations (human) (UniProt O15027); experiment: as above

binding [1]: no binding
binding [2]: no binding
B1: endogenous p115 (HEK293T) (protein, UniProt O60763 1-962)
chain: MNFLRGVMGGQSAGPQHTEAETIQKLCDRVASSTLLDDRRNAVRALKSLSKKYRLEVGIQAMEHLIHVLQTDRSDSEIIGYALDTLYNIISNEEEEEVEENSTRQSEDLGSQFTEIFIKQQENVTLLLSLLEEFDFHVRWPGVKLLTSLLKQLGPQVQQIILVSPMGVSRLMDLLADSREVIRNDGVLLLQALTRSNGAIQKIVAFENAFERLLDIISEEGNSDGGIVVEDCLILLQNLLKNNNSNQNFFKEGSYIQRMKPWFEVGDENSGWSAQKVTNLHLMLQLVRVLVSPTNPPGATSSCQKAMFQCGLLQQLCTILMATGVPADILTETINTVSEVIRGCQVNQDYFASVNAPSNPPRPAIVVLLMSMVNERQPFVLRCAVLYCFQCFLYKNQKGQGEIVSTLLPSTIDATGNSVSAGQLLCGGLFSTDSLSNWCAAVALAHALQENATQKEQLLRVQLATSIGNPPVSLLQQCTNILSQGSKIQTRVGLLMLLCTWLSNCPIAVTHFLHNSANVPFLTGQIAENLGEEEQLVQGLCALLLGISIYFNDNSLESYMKEKLKQLIEKRIGKENFIEKLGFISKHELYSRASQKPQPNFPSPEYMIFDHEFTKLVKELEGVITKAIYKSSEEDKKEEEVKKTLEQHDNIVTHYKNMIREQDLQLEELRQQVSTLKCQNEQLQTAVTQQVSQIQQHKDQYNLLKIQLGKDNQHQGSYSEGAQMNGIQPEEIGRLREEIEELKRNQELLQSQLTEKDSMIENMKSSQTSGTNEQSSAIVSARDSEQVAELKQELATLKSQLNSQSVEITKLQTEKQELLQKTEAFAKSVEVQGETETIIATKTTDVEGRLSALLQETKELKNEIKALSEERTAIKEQLDSSNSTIAILQTEKDKLELEITDSKKEQDDLLVLLADQDQKILSLKNKLKDLGHPVEEEDELESGDQEDEDDESEDPGKDLDHI

binding [3]: no binding
binding [4]: no binding
B2: endogenous p115 (HeLa) (protein, UniProt O60763 1-962)
chain: B1 chain
